Test results published in patent publication US8883779B2, “Oxazine derivatives and a pharmaceutical composition for inhibiting BACE1 containing them” (Shinogi & Co., Ltd., priority 2011, dated 2014).
Some entries share one result that the patent states for a list of compounds.

Chains of the proteins cited; added tags and fusions are not shown. Residues count along the entry.
UniProt P56817, 46-501: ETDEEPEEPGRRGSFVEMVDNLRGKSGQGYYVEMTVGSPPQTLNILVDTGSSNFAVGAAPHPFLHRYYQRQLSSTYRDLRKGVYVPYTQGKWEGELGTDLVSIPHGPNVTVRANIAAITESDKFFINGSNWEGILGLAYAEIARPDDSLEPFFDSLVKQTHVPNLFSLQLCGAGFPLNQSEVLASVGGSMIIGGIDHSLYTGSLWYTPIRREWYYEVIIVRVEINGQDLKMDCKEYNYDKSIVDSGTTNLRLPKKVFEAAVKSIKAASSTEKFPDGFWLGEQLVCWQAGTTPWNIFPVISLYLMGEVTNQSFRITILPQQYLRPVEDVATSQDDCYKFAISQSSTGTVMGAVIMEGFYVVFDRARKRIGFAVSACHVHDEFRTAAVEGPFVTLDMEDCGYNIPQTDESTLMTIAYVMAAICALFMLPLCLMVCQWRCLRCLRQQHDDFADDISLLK

Target: T1, Recombinant human BACE1 (Homo sapiens, UniProt P56817)
T1 construct: purchased R&D Systems
Assay: Assay of BACE1 inhibiting activity
Assay type: biochemical
Details: Recombinant human BACE1 7.4 nmol/L, substrate peptide 18 nmol/L, pH 5.0, 30° C., 3.5 hours; read-out: 50% inhibitory concentration against the enzymatic activity (IC50)
Experimental: 48.5 μL of substrate peptide solution (Biotin-XSEVNLDAEFRHDSGC-Eu: X=ε-amino-n-capronic acid, Eu=Europium cryptate) was added to each well of 96-hole half-area plate (a black plate: Costar), and after addition of 0.5 μl of the compound of the present invention (DMSO solution) and 1 μl of Recombinant human BACE1(R&D Systems), the reaction mixture was incubated at 30° C. for 3.5 hours. The substrate peptide was synthesized by reacting Cryptate TBPCOOH mono SMP (CIS bio international) with Biotin-XSEVNLDAEFRHDSGC (Peptide Institute, Inc.). The final concentrations of the substrate peptide and Recombinant human BACE1 were adjusted to 18 nmol/L and 7.4 nmol/L, respectively, and the reaction was performed in sodium acetate buffer (50 mmol/L sodium acetate, pH 5.0, 0.008% Triton X-100).
After the incubation for reaction, 50 μl of 8.0 μg/ml Streptavidin-XL665 (CIS bio international) dissolved in phosphate buffer (150 mmol/L K2 HPO4—KH2 PO4, pH 7.0, 0.008% Triton X-100, 0.8 mol/L KF) was added to each well and left stand at 30° C. for 45 minutes. After then, fluorescence intensity was measured (excitation wavelength: 320 nm, measuring wavelength: 620 nm and 665 nm) using Wallac 1420 multilabel counter (Perkin Elmer life sciences).

| Structure (SMILES) | IC50 [nM] |
| --- | --- |
| COc1cnc(C(=O)Nc2ccc(Cl)c([C@]3(C)C=C(CF)OC(N)=N3)c2)c(N)n1 [Compound I-133] | ≤ 1000 |
| C[C@@]1(c2cc(NC(=O)c3ccc(CF)cn3)ccc2F)C=C(CF)OC(N)=N1 [Compound I-65] | ≤ 1000 |
| CC(F)(F)c1cnc(C(=O)Nc2ccc(F)c([C@]3(C)C=C(CF)OC(N)=N3)c2)cn1 [Compound I-88] | ≤ 1000 |
| CC1=C[C@@](C)(c2cc(NC(=O)c3ccc(C(F)F)cn3)ccc2F)N=C(N)O1 [Compound I-5] | ≤ 1000 |
| COc1cnc(C(=O)Nc2cccc([C@]3(C)C=C(CF)OC(N)=N3)c2)c(N)n1 [Compound I-24] | ≤ 1000 |
| CC1=C[C@@](CF)(c2cc(NC(=O)c3ccn(C(F)F)n3)ccc2F)N=C(N)O1 [Compound I-92] | ≤ 1000 |
| CC1=CC(CF)(c2cc(NC(=O)c3cnc(OCF)cn3)ccc2Cl)N=C(N)O1 (centres unmarked) [Compound I-166] | ≤ 1000 |
| C[C@@]1(c2cc(NC(=O)c3ncc(F)cc3F)ccc2F)C=C(CF)OC(N)=N1 [Compound I-33] | ≤ 1000 |
| C[C@@]1(c2cccc(NC(=O)c3cnc(OCF)cn3)c2)C=C(CF)OC(N)=N1 [Compound I-21] | ≤ 1000 |
| C[C@@]1(c2cc(NC(=O)c3ncc(C#N)cc3C(F)F)ccc2F)C=C(CF)OC(N)=N1 [Compound I-31] | ≤ 1000 |
| CC1=C[C@@](C)(c2cc(NC(=O)c3ncc(Cl)cc3C(F)(F)F)ccn2)N=C(N)O1 [Compound I-75] | ≤ 1000 |
| C[C@@]1(c2cc(NC(=O)c3ccn(C(F)F)n3)ccc2F)C=C(CF)OC(N)=N1 [Compound I-35] | ≤ 1000 |
| CC1=C[C@@](CF)(c2cc(NC(=O)c3ncc(C#N)cc3C)ccc2F)N=C(N)O1 [Compound I-131] | ≤ 1000 |
| N#Cc1ccc(C(=O)Nc2ccc(F)c([C@]3(CF)C=COC(N)=N3)c2)nc1 [Compound I-156] | ≤ 1000 |
| C[C@@]1(c2cc(NC(=O)c3ccc(C#N)cn3)ccc2F)C=C(CC(F)F)OC(N)=N1 [Compound I-158] | ≤ 1000 |
| C[C@@]1(c2cc(NC(=O)c3ncc(Cl)cc3F)ccc2F)C=C(CF)OC(N)=N1 [Compound I-40] | ≤ 1000 |
| C[C@@]1(c2cc(NC(=O)c3ncc(Cl)cc3Cl)ccc2F)C=C(C(F)F)OC(N)=N1 [Compound I-169] | ≤ 1000 |
| CC1=C[C@@](C)(c2cccc(NC(=O)c3ccc(C#N)cn3)c2)N=C(N)O1 [Compound I-68] | ≤ 1000 |
| C[C@@]1(c2cc(NC(=O)c3cnc(OCC(F)(F)F)cn3)ccc2F)C=C(CF)OC(N)=N1 [Compound I-32] | ≤ 1000 |

| Structure (SMILES) | IC50 [nM] |
| --- | --- |
| Cc1cc(CF)cnc1C(=O)Nc1ccc(F)c([C@]2(C)C=C(CF)OC(N)=N2)c1 [Compound I-30] | ≤ 1000 |
| C[C@@]1(c2cc(NC(=O)c3ccc(C#N)cn3)ccc2Cl)C=COC(N)=N1 [Compound I-12] | ≤ 1000 |
| C#Cc1ccc(C(=O)Nc2ccc(F)c([C@]3(CF)C=C(C)OC(N)=N3)c2)nc1 [Compound I-96] | ≤ 1000 |
| C[C@@]1(c2cccc(NC(=O)c3ncc(OCF)nc3N)c2)C=C(CF)OC(N)=N1 [Compound I-146] | ≤ 1000 |
| CC1=C[C@@](C)(c2cc(NC(=O)c3cnc(C(F)F)cn3)ccc2F)N=C(N)O1 [Compound I-15] | ≤ 1000 |
| CC1=C[C@@](C)(c2cc(NC(=O)c3cnc(OCC(F)(F)F)cn3)ccn2)N=C(N)O1 [Compound I-80] | ≤ 1000 |
| Cc1cc(C#N)cnc1C(=O)Nc1ccc(F)c([C@]2(CF)C=COC(N)=N2)c1 [Compound I-160] | ≤ 1000 |
| C[C@@]1(c2cc(NC(=O)c3cnc(CF)cn3)ccc2F)C=C(CF)OC(N)=N1 [Compound I-56] | ≤ 1000 |
| C[C@@]1(c2cc(NC(=O)c3ncc(C#N)cc3CF)ccc2F)C=C(CF)OC(N)=N1 [Compound I-132] | ≤ 1000 |
| CC1=CC(CF)(c2cc(NC(=O)c3ccc(Cl)cn3)ccc2Cl)N=C(N)O1 (centres unmarked) [Compound I-165] | ≤ 1000 |
| C[C@@]1(c2cc(NC(=O)c3ncc(C#N)cc3C(F)(F)F)ccc2F)C=C(CF)OC(N)=N1 [Compound I-113] | ≤ 1000 |
| CC1=C[C@@](CF)(c2cc(NC(=O)c3ccc(Cl)cn3)ccc2F)N=C(N)O1 [Compound I-157] | ≤ 1000 |
| COc1cnc(C(=O)Nc2ccc(F)c([C@]3(CF)C=C(C)OC(N)=N3)c2)cn1 [Compound I-91] | ≤ 1000 |
| COc1cnc(C(=O)Nc2ccc(F)c([C@]3(C)C=COC(N)=N3)c2)cn1 [Compound I-10] | ≤ 1000 |
| CC1=C[C@@](C)(c2cc(NC(=O)c3ncc(Cl)cc3F)ccn2)N=C(N)O1 [Compound I-76] | ≤ 1000 |
| CC1=C[C@@](C)(c2cc(NC(=O)c3cnc(OCF)cn3)ccn2)N=C(N)O1 [Compound I-78] | ≤ 1000 |
| C[C@@]1(c2cc(NC(=O)c3ccc(C#N)cn3)ccc2Cl)C=C(CF)OC(N)=N1 [Compound I-97] | ≤ 1000 |
| C#Cc1ccc(C(=O)Nc2ccc(F)c([C@]3(C)C=C(CF)OC(N)=N3)c2)nc1 [Compound I-43] | ≤ 1000 |
| C[C@@]1(c2cc(NC(=O)c3ncc(C(F)F)nc3N)ccc2F)C=C(CF)OC(N)=N1 [Compound I-116] | ≤ 1000 |

| Structure (SMILES) | IC50 [nM] |
| --- | --- |
| Cc1cc(OCC(F)(F)F)cnc1C(=O)Nc1ccc(F)c([C@]2(C)C=C(CF)OC(N)=N2)c1 [Compound I-58] | ≤ 1000 |
| C#Cc1cnc(C(=O)Nc2ccc(F)c([C@]3(C)C=C(CF)OC(N)=N3)c2)c(C)c1 [Compound I-60] | ≤ 1000 |
| NC1=N[C@](CF)(c2cc(NC(=O)c3ncc(OCF)nc3N)ccc2F)C=CO1 [Compound I-167] | ≤ 1000 |
| C#Cc1ccc(C(=O)Nc2ccc(F)c([C@]3(C)C=C(C)OC(N)=N3)c2)nc1 [Compound I-14] | ≤ 1000 |
| CC1=C[C@@](CF)(c2cc(NC(=O)c3ncc(C(F)F)nc3N)ccc2F)N=C(N)O1 [Compound I-153] | ≤ 1000 |
| CCc1cc(C#N)cnc1C(=O)Nc1ccc(F)c([C@]2(C)C=C(CF)OC(N)=N2)c1 [Compound I-109] | ≤ 1000 |
| C#Cc1cc(Cl)cnc1C(=O)Nc1ccc(F)c([C@]2(C)C=C(CF)OC(N)=N2)c1 [Compound I-128] | ≤ 1000 |
| C[C@@]1(c2cccc(NC(=O)c3ccc(C#N)cn3)c2)C=C(CF)OC(N)=N1 [Compound I-19] | ≤ 1000 |
| COc1cnc(C(=O)Nc2ccnc([C@]3(C)C=C(C)OC(N)=N3)c2)c(N)n1 [Compound I-84] | ≤ 1000 |
| CC1=C[C@@](C)(c2cc(NC(=O)c3ccc(C#N)cn3)ccn2)N=C(N)O1 [Compound I-73] | ≤ 1000 |
| C[C@@]1(c2cc(NC(=O)c3ccc(C(F)F)cn3)ccc2F)C=C(CF)OC(N)=N1 [Compound I-62] | ≤ 1000 |
| CC1=CC(CF)(c2cc(NC(=O)c3ccc(C#N)cn3)ccc2Cl)N=C(N)O1 (centres unmarked) [Compound I-154] | ≤ 1000 |
| C[C@@]1(c2cc(NC(=O)c3ncc(OCF)nc3N)ccc2F)C=C(C(F)F)OC(N)=N1 [Compound I-144] | ≤ 1000 |
| C[C@@]1(c2cc(NC(=O)c3cnc(CF)cn3)ccc2Cl)C=C(CF)OC(N)=N1 [Compound I-50] | ≤ 1000 |
| CC1=C[C@@](C)(c2cc(NC(=O)c3ccc(C#N)cn3)ccc2Br)N=C(N)O1 [Compound I-67] | ≤ 1000 |
| C[C@@]1(c2cc(NC(=O)c3ccc(OCF)cn3)ccc2F)C=C(CF)OC(N)=N1 [Compound I-42] | ≤ 1000 |
| C[C@@]1(c2cc(NC(=O)c3ncc(C#N)cc3C3CC3)ccc2F)C=C(C(F)F)OC(N)=N1 [Compound I-168] | ≤ 1000 |
| C[C@@]1(c2cccc(NC(=O)c3cnc(C(F)F)cn3)c2)C=C(CF)OC(N)=N1 [Compound I-22] | ≤ 1000 |
